Source: the M2OR odorant receptor database
The list shows a part of the results. The calls were merged from several studies; some rest on single wells.

The compounds below were run on T1, O1020. Details: stereoisomer not certain.
T1 sequence (whole entry): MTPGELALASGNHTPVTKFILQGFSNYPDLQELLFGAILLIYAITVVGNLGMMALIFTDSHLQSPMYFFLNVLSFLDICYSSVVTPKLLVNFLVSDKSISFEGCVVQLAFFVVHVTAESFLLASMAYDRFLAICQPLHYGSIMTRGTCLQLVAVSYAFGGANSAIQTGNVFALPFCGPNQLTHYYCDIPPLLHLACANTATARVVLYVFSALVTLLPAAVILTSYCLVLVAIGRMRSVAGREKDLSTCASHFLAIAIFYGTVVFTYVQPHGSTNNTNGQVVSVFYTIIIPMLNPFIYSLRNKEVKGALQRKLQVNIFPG
In short: (§1)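 Values were gathered from published papers (main text and supplementary material), with extra details requested from the original authors when needed, and checked for typos and inconsistencies. Each receptor–molecule pair is called responsive (active) if the original authors judged the measured signal statistically different from baseline, and non-responsive (inactive) otherwise. Assay methods varied by source, often transient mammalian cell-line luciferase assays. Recorded details include cell line, G-protein, co-transfected protein and tags.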
`O=C1CCCCCCCCCCCC(=O)OCCO1` was tested, and the “odorant receptor agonist call” value was “inactive”.
`CCCC(=O)O` was tested, and the “odorant receptor agonist call” value was “inactive”.
For `CC12CCC(C1)C(C)(C)C2=O` (stereo not given), the “odorant receptor agonist call” value was “inactive”.
In the case of `CC(C)CC(=O)O`, the “odorant receptor agonist call” value is reported as “inactive”.
In the case of `CCCCCCCOC(C)=O`, the “odorant receptor agonist call” value is reported as “inactive”.
For `c1ccc(Oc2ccccc2)cc1`, the “odorant receptor agonist call” value was “inactive”.
In the case of `CCC1(O)C2(C)CCC(C2)C1(C)C` (stereo not given), the “odorant receptor agonist call” value is reported as “inactive”.
`COc1cc(C)ccc1O` was tested, and the “odorant receptor agonist call” value was “inactive”.
In the case of `CC1=CCC(C(C)(C)O)CC1` (stereo not given), the “odorant receptor agonist call” value is reported as “inactive”.
With `CC(=O)C(C)=O` the “odorant receptor agonist call” value was “inactive”.
In the case of `CC(=O)OC(C)(C)C1CC=C(C)CC1` (stereo not given), the “odorant receptor agonist call” value is reported as “inactive”.
In the case of `c1cnccn1`, the “odorant receptor agonist call” value is reported as “inactive”.
For `CC12C=CCC1C1CCC3CC(=O)CCC3(C)C1CC2` (stereo not given), the “odorant receptor agonist call” value was “active”.
For `CCCCCCCC=O`, the “odorant receptor agonist call” value was “inactive”.
In the case of `CC=Cc1ccc(O)c(OC)c1`, the “odorant receptor agonist call” value is reported as “active”.
In the case of `O=C1CCCCC1`, the “odorant receptor agonist call” value is reported as “inactive”.
`CC1CCC(C(C)C)C(O)C1` (stereo not given) was tested, and the “odorant receptor agonist call” value was “inactive”.
`COc1ccccc1O` was tested, and the “odorant receptor agonist call” value was “inactive”.
With `O=CCc1ccccc1` the “odorant receptor agonist call” value was “inactive”.
With `CCCCCCOC(=O)CCC` the “odorant receptor agonist call” value was “inactive”.
`CCCCCOC(C)=O` was tested, and the “odorant receptor agonist call” value was “inactive”.
In the case of `CCCCCCCCCCC=O`, the “odorant receptor agonist call” value is reported as “inactive”.
`C=CCc1ccc(OC(C)=O)c(OC)c1` was tested, and the “odorant receptor agonist call” value was “inactive”.
With `CCCCO` the “odorant receptor agonist call” value was “inactive”.
`CCCCCC(C)=O` was tested, and the “odorant receptor agonist call” value was “inactive”.

The compounds below were run on T2, O1052. Details: stereoisomer not certain.
T2 sequence (whole entry): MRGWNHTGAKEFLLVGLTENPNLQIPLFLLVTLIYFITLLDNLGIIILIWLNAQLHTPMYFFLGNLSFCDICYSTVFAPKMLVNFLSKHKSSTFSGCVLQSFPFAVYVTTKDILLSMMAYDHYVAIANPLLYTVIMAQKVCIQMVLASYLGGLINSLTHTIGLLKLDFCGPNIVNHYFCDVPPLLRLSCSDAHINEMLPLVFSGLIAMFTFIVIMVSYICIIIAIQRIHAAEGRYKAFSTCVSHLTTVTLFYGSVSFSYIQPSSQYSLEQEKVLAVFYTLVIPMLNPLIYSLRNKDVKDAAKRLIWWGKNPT
In short: as §1
For `O=C1CCCCCCCCCCCC(=O)OCCO1`, the “odorant receptor agonist call” value was “inactive”.
In the case of `CCCC(=O)O`, the “odorant receptor agonist call” value is reported as “inactive”.
With `CC12CCC(C1)C(C)(C)C2=O` (stereo not given) the “odorant receptor agonist call” value was “inactive”.
`CC(C)CC(=O)O` was tested, and the “odorant receptor agonist call” value was “inactive”.
With `CCCCCCCOC(C)=O` the “odorant receptor agonist call” value was “inactive”.
With `c1ccc(Oc2ccccc2)cc1` the “odorant receptor agonist call” value was “inactive”.
In the case of `CCC1(O)C2(C)CCC(C2)C1(C)C` (stereo not given), the “odorant receptor agonist call” value is reported as “inactive”.
In the case of `COc1cc(C)ccc1O`, the “odorant receptor agonist call” value is reported as “inactive”.
`CC1=CCC(C(C)(C)O)CC1` (stereo not given) was tested, and the “odorant receptor agonist call” value was “inactive”.
For `CC(=O)C(C)=O`, the “odorant receptor agonist call” value was “inactive”.
For `CC(=O)OC(C)(C)C1CC=C(C)CC1` (stereo not given), the “odorant receptor agonist call” value was “inactive”.
For `c1cnccn1`, the “odorant receptor agonist call” value was “inactive”.
With `CC12C=CCC1C1CCC3CC(=O)CCC3(C)C1CC2` (stereo not given) the “odorant receptor agonist call” value was “active”.
`CCCCCCCC=O` was tested, and the “odorant receptor agonist call” value was “inactive”.
For `CC=Cc1ccc(O)c(OC)c1`, the “odorant receptor agonist call” value was “inactive”.
In the case of `O=C1CCCCC1`, the “odorant receptor agonist call” value is reported as “inactive”.
With `CC1CCC(C(C)C)C(O)C1` (stereo not given) the “odorant receptor agonist call” value was “inactive”.
In the case of `COc1ccccc1O`, the “odorant receptor agonist call” value is reported as “inactive”.
For `O=CCc1ccccc1`, the “odorant receptor agonist call” value was “inactive”.
With `CCCCCCOC(=O)CCC` the “odorant receptor agonist call” value was “inactive”.
For `CCCCCOC(C)=O`, the “odorant receptor agonist call” value was “inactive”.
`CCCCCCCCCCC=O` was tested, and the “odorant receptor agonist call” value was “inactive”.
`C=CCc1ccc(OC(C)=O)c(OC)c1` was tested, and the “odorant receptor agonist call” value was “inactive”.
In the case of `CCCCO`, the “odorant receptor agonist call” value is reported as “inactive”.
For `CCCCCC(C)=O`, the “odorant receptor agonist call” value was “inactive”.

Each compound was assayed on T3, O10A2. Details: stereoisomer not certain.
T3 sequence (whole entry): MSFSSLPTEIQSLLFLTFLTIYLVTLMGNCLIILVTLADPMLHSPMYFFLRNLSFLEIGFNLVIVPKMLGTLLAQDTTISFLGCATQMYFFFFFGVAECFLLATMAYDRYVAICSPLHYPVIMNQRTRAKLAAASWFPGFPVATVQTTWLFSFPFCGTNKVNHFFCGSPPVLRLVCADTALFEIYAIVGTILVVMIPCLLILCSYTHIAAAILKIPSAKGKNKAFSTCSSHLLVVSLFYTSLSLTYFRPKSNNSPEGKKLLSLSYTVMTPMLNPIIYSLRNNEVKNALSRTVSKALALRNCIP
In short: as §1
For `O=C1CCCCCCCCCCCC(=O)OCCO1`, the “odorant receptor agonist call” value was “inactive”.
With `CCCC(=O)O` the “odorant receptor agonist call” value was “inactive”.
`CC12CCC(C1)C(C)(C)C2=O` (stereo not given) was tested, and the “odorant receptor agonist call” value was “inactive”.
With `CC(C)CC(=O)O` the “odorant receptor agonist call” value was “inactive”.
For `CCCCCCCOC(C)=O`, the “odorant receptor agonist call” value was “inactive”.
For `c1ccc(Oc2ccccc2)cc1`, the “odorant receptor agonist call” value was “inactive”.
For `CCC1(O)C2(C)CCC(C2)C1(C)C` (stereo not given), the “odorant receptor agonist call” value was “inactive”.
With `COc1cc(C)ccc1O` the “odorant receptor agonist call” value was “inactive”.
In the case of `CC1=CCC(C(C)(C)O)CC1` (stereo not given), the “odorant receptor agonist call” value is reported as “inactive”.
For `CC(=O)C(C)=O`, the “odorant receptor agonist call” value was “inactive”.
`CC(=O)OC(C)(C)C1CC=C(C)CC1` (stereo not given) was tested, and the “odorant receptor agonist call” value was “inactive”.
In the case of `c1cnccn1`, the “odorant receptor agonist call” value is reported as “inactive”.
In the case of `CC12C=CCC1C1CCC3CC(=O)CCC3(C)C1CC2` (stereo not given), the “odorant receptor agonist call” value is reported as “active”.
In the case of `CCCCCCCC=O`, the “odorant receptor agonist call” value is reported as “inactive”.
`CC=Cc1ccc(O)c(OC)c1` was tested, and the “odorant receptor agonist call” value was “inactive”.
In the case of `O=C1CCCCC1`, the “odorant receptor agonist call” value is reported as “inactive”.
In the case of `CC1CCC(C(C)C)C(O)C1` (stereo not given), the “odorant receptor agonist call” value is reported as “inactive”.
With `COc1ccccc1O` the “odorant receptor agonist call” value was “inactive”.
With `O=CCc1ccccc1` the “odorant receptor agonist call” value was “inactive”.
For `CCCCCCOC(=O)CCC`, the “odorant receptor agonist call” value was “inactive”.
In the case of `CCCCCOC(C)=O`, the “odorant receptor agonist call” value is reported as “inactive”.
`CCCCCCCCCCC=O` was tested, and the “odorant receptor agonist call” value was “inactive”.
For `C=CCc1ccc(OC(C)=O)c(OC)c1`, the “odorant receptor agonist call” value was “inactive”.
With `CCCCO` the “odorant receptor agonist call” value was “inactive”.
In the case of `CCCCCC(C)=O`, the “odorant receptor agonist call” value is reported as “inactive”.
